This is an account of results in patent US20140308685A1 (SHINO TEST, published 2014).

The assay addresses T1, partial-length periostin (R1/R2/R3 regions) (Homo sapiens (Human)) (UniProt Q15063).
T1 sequence: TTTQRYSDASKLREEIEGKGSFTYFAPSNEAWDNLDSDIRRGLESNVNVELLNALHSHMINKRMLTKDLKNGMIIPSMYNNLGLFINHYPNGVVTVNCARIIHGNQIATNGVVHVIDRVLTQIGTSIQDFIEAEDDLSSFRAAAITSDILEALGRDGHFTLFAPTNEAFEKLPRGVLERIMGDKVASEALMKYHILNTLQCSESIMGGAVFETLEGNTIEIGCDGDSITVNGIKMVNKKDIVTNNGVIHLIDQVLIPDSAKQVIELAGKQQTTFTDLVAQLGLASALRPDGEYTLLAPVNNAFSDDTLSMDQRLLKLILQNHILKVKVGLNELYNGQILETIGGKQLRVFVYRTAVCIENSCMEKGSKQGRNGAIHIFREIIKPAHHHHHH
The assay is described as follows: ELISA on immobilized antigen (5 ug/mL), A405; bound if difference to control well is 0.2 or more. A general note: In an ELISA, binding on a coated surface is turned into a signal by an enzyme label.

No constants are given. Whether binding was seen depends on the method and setting. Some binding calls cover weakened binding; strength is not graded here.

B1: anti-periostin monoclonal antibody (SS19D) (antibody, V domains shown)
VH: QVQLQQPGSELVKPGASVKLSCKASGYTFTSYWMHWVKQSPGQGLEWIGEINPSNGRTNYNEKFKTKATLTVDKSSSTAYMQLNSLTSEDSAVYYCVRGDEGFAYWGQGTLVTVSA
VL: NIVLTQSPASLAVSLGQRATISCSASESVDSYGRSFIHWFQQKPGQPPKLLIYLASYLESGVPARFSGSGSRTDFTLTIDPVEADDAATYYCHQNNEDPPTFGGGAKLEIKR
As for B1, the binding entry is reported as “binds”.
